# According to PubChem BioAssay AID588634 (Broad Institute, 2011):
# The source calls these results inconclusive, neither active nor inactive.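 How the source made its calls: active means compounds whose fitted half-maximal toxic concentration is no more than twice their top tested dose; inconclusive means flat fit with 30 to 70% signal loss, or poor fit; inactive means the rest.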
# Test: cytotoxicity in NIH-3T3 fibroblasts, dose response, cytotoxicity control for antifungal single agent project, cell-based, Alamar Blue, cherry-pick (AID 588634)
# Settings: NIH-3T3 fibroblast viability, Alamar Blue fluorescence, 48 h; at 26 µM (top of the series)
structure (smiles),measurement,value
C=CCNC(=S)N/N=C(\C)c1ccccn1,"activity change, negative = toxicity",inconclusive: -67.2%
